The text below walks through data of PMC4372598.

Results are given in words; binding and its absence hold for the method and conditions named. For part of these data: Binding seen in cells or lysates may run through a third protein. Some results given as binding are weak or reduced against the parent protein; the word gives no strength. For part of these data: Tags and fused reporters may be left off the sequences shown.

In one experiment the target is T1, FLAG-tagged Smyd1 (UniProt P97443).
T1 sequence: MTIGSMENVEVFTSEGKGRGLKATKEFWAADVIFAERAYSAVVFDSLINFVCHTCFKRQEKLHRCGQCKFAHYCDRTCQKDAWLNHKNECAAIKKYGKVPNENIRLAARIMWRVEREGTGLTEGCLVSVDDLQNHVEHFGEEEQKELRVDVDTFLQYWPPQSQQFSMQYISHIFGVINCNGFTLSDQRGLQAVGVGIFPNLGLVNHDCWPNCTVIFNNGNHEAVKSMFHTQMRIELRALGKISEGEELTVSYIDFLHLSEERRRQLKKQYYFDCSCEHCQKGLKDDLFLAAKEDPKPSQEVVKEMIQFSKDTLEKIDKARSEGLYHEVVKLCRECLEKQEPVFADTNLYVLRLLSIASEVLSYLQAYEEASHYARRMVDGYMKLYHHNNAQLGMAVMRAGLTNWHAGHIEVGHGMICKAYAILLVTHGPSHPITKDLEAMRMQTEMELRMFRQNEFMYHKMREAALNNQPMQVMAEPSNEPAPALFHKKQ
The experiment is described as follows: co-IP; Cos7 cells co-transfected with FLAG-Smyd1 and MYC-Trb3 constructs; lysis in 10 mM Tris pH 7.4, 1 mM EDTA, 0.5% Triton X100 in PBS; immunoprecipitated with monoclonal anti-FLAG M2, blotted with polyclonal anti-MYC A14.

A further experiment has as its target T2, Smyd1 (yeast two-hybrid) (UniProt P97443).
T2 sequence: T1 sequence
The experiment can be described thus: two-hybrid; yeast two-hybrid assays, data not shown.

B1: MYC-tagged TRB3 (1-80) (domain or fragment, UniProt Q8K4K2 1-80)
chain: MRATPLAASADVSCRKKPLEFDDNIDAKCPVLKRVRDEPEPGPLPSLLPPSPPPASDLSPAVAPATRLGPYILLEREQGS
On to B1, for which the binding entry with FLAG-tagged Smyd1 is on record as “binds”.

B2: MYC-tagged TRB3 full-length (protein, UniProt Q8K4K2 1-354)
chain: MRATPLAASADVSCRKKPLEFDDNIDAKCPVLKRVRDEPEPGPLPSLLPPSPPPASDLSPAVAPATRLGPYILLEREQGSCSYRALHCPTGTEYTCKVYPASEAQAVLAPYARLPTHQHVARPTEVLLGSRLLYIFFTKTHGDLHSLVRSRRGIPESEAAGLFRQMASAVAHCHKHGLVLRDLKLRRFVFSNCERTKLVLENLEDACVMTGSDDSLWDKHACPAYVGPEILSSRPSYSGKAADVWSLGVALFTMLAGRYPFHDSEPVLLFGKIRRGTFALPEGLSAPARCLIRCLLRKEPSERLVALGILLHPWLREDHGRVSPPQSDRREMDQVVPDGPQLEEAEEGEVGLYG
For B2, the binding entry with FLAG-tagged Smyd1 is on record as “binds”.

B3: TRB3 (yeast two-hybrid) (protein, UniProt Q8K4K2 1-354)
chain: B2 chain
As to B3, in the experiment with Smyd1 (yeast two-hybrid), the binding entry is reported as “binds”.
